Data source: PubChem BioAssay AID1259331 (Drosophila RNAi Screening Center, 2017)

Test: 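Genes whose knock-down changes cell survival under toxic zinc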 (primary screen)
Cells: Drosophila S2R+ cells
Knock-down reagent: long dsRNA against Drosophila genes
Timing: 5 days (4 days knock-down, then 1 day zinc)
Conditions: zinc chloride at 15 mM final level for 1 day
Measurement: 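Luminescent ATP assay standing in for viability; Z score is the mean over three replicate plates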
Scale: mean Z score: higher = more ATP than other wells, better survival under zinc; ATP luminescence: higher = more ATP, more viable cells
Rule for the call: 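Hit when the absolute Z score is greater than 1.5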
Calls: active = hit, ATP up or down; inactive = not a hit
In all, the deposit lists about 3,100 reagents; shown is a random part of them. Of all reagents, 126 (4.1%) were called active. 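Calls are per reagent; zinc was so toxic that few knock-downs lowered ATP further, so most hits raise ATP.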 Raw values are not corrected between plates. Reagent sequences are not shown. Not given: the amount of reagent.

{"gene knocked down":"CG30340","DRSC id":"DRSC05167","mean Z score":-0.187,"ATP luminescence, replicate 1":41565,"ATP luminescence, replicate 2":43348,"activity call":"inactive"}
{"gene knocked down":"CG8046","DRSC id":"DRSC07059","mean Z score":-0.255,"ATP luminescence, replicate 1":29530,"ATP luminescence, replicate 2":28634,"activity call":"inactive"}
{"gene knocked down":"Vamp7","DRSC id":"DRSC06599","mean Z score":-0.315,"ATP luminescence, replicate 1":1.01e5,"ATP luminescence, replicate 2":63635,"activity call":"inactive"}
{"gene knocked down":"CG5880","DRSC id":"DRSC15906","mean Z score":0.111,"ATP luminescence, replicate 1":42868,"ATP luminescence, replicate 2":50669,"activity call":"inactive"}
{"gene knocked down":"CG5880","DRSC id":"DRSC39828","mean Z score":-0.254,"ATP luminescence, replicate 1":53327,"ATP luminescence, replicate 2":51887,"activity call":"inactive"}
{"gene knocked down":"CG1090","DRSC id":"DRSC21604","mean Z score":0.143,"ATP luminescence, replicate 1":52504,"ATP luminescence, replicate 2":49103,"activity call":"inactive"}
{"gene knocked down":"salt","DRSC id":"DRSC25514","mean Z score":0.0214,"ATP luminescence, replicate 1":61345,"ATP luminescence, replicate 2":62107,"activity call":"inactive"}
{"gene knocked down":"Cad88C","DRSC id":"DRSC15486","mean Z score":-0.256,"ATP luminescence, replicate 1":39837,"ATP luminescence, replicate 2":56825,"activity call":"inactive"}
{"gene knocked down":"Cad88C","DRSC id":"DRSC26126","mean Z score":0.0878,"ATP luminescence, replicate 1":55813,"ATP luminescence, replicate 2":60203,"activity call":"inactive"}
{"gene knocked down":"CG8654","DRSC id":"DRSC07231","mean Z score":-0.165,"ATP luminescence, replicate 1":28530,"ATP luminescence, replicate 2":30747,"activity call":"inactive"}
{"gene knocked down":"Tmtc4","DRSC id":"DRSC15702","mean Z score":0.0681,"ATP luminescence, replicate 1":35239,"ATP luminescence, replicate 2":62313,"activity call":"inactive"}
{"gene knocked down":"Tmtc4","DRSC id":"DRSC39629","mean Z score":-0.519,"ATP luminescence, replicate 1":51509,"ATP luminescence, replicate 2":51784,"activity call":"inactive"}

Targets listed so far whose target name begins with T or t:
{"gene knocked down":"Tmtc4","DRSC id":"DRSC15702","mean Z score":0.0681,"ATP luminescence, replicate 1":35239,"ATP luminescence, replicate 2":62313,"activity call":"inactive"}
{"gene knocked down":"Tmtc4","DRSC id":"DRSC39629","mean Z score":-0.519,"ATP luminescence, replicate 1":51509,"ATP luminescence, replicate 2":51784,"activity call":"inactive"}
